Data source: PubChem BioAssay AID743454 (Peter MacCallum Cancer Centre, 2014)
Here is an unselected part of about 18,000 deposited reagents. In the full data, 450 (2.5%) were called active. 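Single biological run; no consistent viability z cut-off exists, so the class columns, not z-scores, define the calls.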 Entries without a mark were called inactive. The numbers tell different reagents against one gene apart.

- Test: 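Genes whose loss kills vorinostat-resistant colon cancer cells under vorinostat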 (primary screen)
- Cell system: human HCT116-VR colon cancer cells, selected for vorinostat resistance
- Reagent: siRNA pool against human genes, 40 nM siRNA pool
- Timing: vorinostat for 24 h, read-out about 72 h after transfection
- Conditions: vorinostat at 2.5 µM final
- Read-out: 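Cell viability by CellTiter-Fluor and caspase 3/7 activity by luminescence, each scaled to mock wells per plate, duplicates averaged, then robust z-scored over all plates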
- Scale: viability robust z-score: higher = more viable cells than screen typical; caspase robust z-score: higher = more caspase 3/7 activity than screen typical
- Call rule: 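a knock-down is a hit when classed RV1 or RV2 for lowered viability, or CA1 or CA2 for caspase activation; those lethal without drug were dropped; hits were retested singly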

gene symbol,pool no.,viability hit class,caspase hit class,viability robust z-score,caspase robust z-score
PLPPR3,1,no change,no change,0.39,-0.52
OR5C1,1,no change,no change,-0.8,0.94
KRT3,1,no change,no change,-0.88,2.44
SLC45A4,1,no change,no change,0.03,-0.95
SEL1L3,1,no change,no change,1.2,-0.24
YWHAZ,1,no change,no change,-1.98,-0.43
RBM6,1,no change,no change,1.59,-1.06
RNASE11,1,no change,no change,0.3,-0.5
GRK5,1,no change,no change,-0.96,0.03
STX12,1,no change,no change,-0.29,0.28
C1orf216,1,no change,no change,-1.06,2.45
TCAIM,1,no change,no change,1.27,-0.78
OR8D2,1,no change,no change,-0.72,-0.06
PDZD9,1,no change,no change,-1.01,-0.05
XPR1,1,no change,no change,0.76,-0.64
CCS,1,no change,no change,-0.3,1.74
ST20-AS1,1,no change,no change,1.58,-0.46
NCALD,1,no change,no change,0.89,-0.86
TUBB2A,1,no change,no change,-2.68,2.16
RAD21,1,no change,no change,-0.52,1.8
CACNA2D4,1,no change,no change,0.29,-0.55
RGL2,1,no change,no change,0.64,0.12
ZAN,1,no change,no change,1.05,-0.08
TARS1,1,no change,no change,0.29,0.32
MFAP2,1,no change,no change,1.11,1.97
RCC1,1,no change,no change,0.58,2.46
RCC1,2,no change,no change,-0.44,3
SEC14L3,1,no change,no change,0.84,-0.1
STAG1,1,no change,no change,0.76,-0.61
TSC1,1,no change,no change,-0.07,0.31

Sorted by “viability robust z-score” (low to high): 5 of the entries above.
gene symbol,pool no.,viability hit class,caspase hit class,viability robust z-score,caspase robust z-score
KRT3,1,no change,no change,-0.88,2.44
OR5C1,1,no change,no change,-0.8,0.94
SLC45A4,1,no change,no change,0.03,-0.95
PLPPR3,1,no change,no change,0.39,-0.52
SEL1L3,1,no change,no change,1.2,-0.24

Continued.
gene symbol,pool no.,viability hit class,caspase hit class,viability robust z-score,caspase robust z-score
APCS,1,no change,no change,1,-0.76
EIF3D,1,no change,no change,-1.82,-0.36
BUD13,1,no change,no change,0.66,-0.67
CYB561A3,1,no change,no change,0.05,0.6
MRPL48,1,no change,no change,0.44,1.94
PRR30,1,no change,no change,-0.5,0.38
KIF17,1,no change,no change,0.81,0.82
DTX2,1,no change,no change,-1.64,-0.69
ADAR,1,no change,no change,1.25,1.09
RAB34,1,no change,no change,-1.04,3.01
DMRT2,1,no change,no change,0.55,-0.98
AHDC1,1,no change,no change,0.16,1.09
ACBD5,1,no change,no change,1.26,-0.2
DUSP18,1,no change (active),CA1 (caspase activation),1.06,5.65
KDSR,1,no change,no change,0.12,-0.46
SH3BP5L,1,no change,no change,-0.15,1.18
E2F1,1,no change,no change,-0.82,2.31
SRRM4,1,no change,no change,0.37,2.7
HR,1,no change,no change,1.09,-0.5
C1QTNF9B,1,no change,no change,1.52,-0.07
OR4D6,1,no change,no change,-0.62,5.09
ELF3,1,no change,no change,-0.3,2.42
MIGA2,1,no change,no change,-0.24,-0.76
C22orf15,1,no change (active),CA1 (caspase activation),-0.02,7.7
NEUROD4,1,no change,no change,-0.84,0.13
CCT6B,1,no change,no change,0.82,-0.28
PLEKHG1,1,no change,no change,-0.38,1.26
